Laboratory results taken from PubChem BioAssay (EPA / NIEHS).
Where “and” joins values, the source holds several entries; their conditions need not be identical. Equal values may be shown once. The shares of active, inactive and inconclusive entries below differ from those in the screen. Where the call is inconclusive, the potency comes from a doubtful curve fit. Where a structure was tested more than once in an assay, its records may differ in their call. Calls of active or inactive are those of the source. How the source made its calls: active means hit-call score of the fitted dose curve at least 0.9, where 1 is the maximum; inconclusive means response in the unintended direction; inactive means score below 0.9.

The chains behind the UniProt entries cited, without tags or fusion partners. Where a name states a change or a piece, a line headed by the entry shows the natural chain unless it says otherwise.
UniProt P19793: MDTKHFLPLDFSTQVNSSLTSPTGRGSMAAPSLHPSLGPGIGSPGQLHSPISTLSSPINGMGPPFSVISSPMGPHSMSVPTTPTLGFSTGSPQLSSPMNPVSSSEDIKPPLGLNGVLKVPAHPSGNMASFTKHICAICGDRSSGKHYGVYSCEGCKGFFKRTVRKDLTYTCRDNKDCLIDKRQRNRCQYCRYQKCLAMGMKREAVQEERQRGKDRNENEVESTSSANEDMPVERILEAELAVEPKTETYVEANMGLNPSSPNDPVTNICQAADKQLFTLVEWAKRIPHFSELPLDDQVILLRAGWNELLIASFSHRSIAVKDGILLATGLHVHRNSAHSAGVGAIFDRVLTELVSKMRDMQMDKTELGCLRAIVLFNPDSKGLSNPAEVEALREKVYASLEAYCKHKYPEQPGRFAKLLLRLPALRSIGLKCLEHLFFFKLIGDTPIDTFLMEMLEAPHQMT

biological target: Retinoic acid receptor RXR-alpha (Homo sapiens) (UniProt P19793); experiment: OT_NURR1_NURR1RXRa_1440: Odyssey Thera (OT) 24-hour HEK293T Protein Complementation Assay for Nurr1/retinoid X receptor (RXR) (AID 2283386)
Description: OT_NURR1_NURR1RXRa_1440 is a cell-based assay that uses HEK293T, a human kidney cell line, with measurements taken at 24 hours after chemical dosing in a 384-well plate.OT_NURR1_NURR1RXRa_1440 is one of one assay component(s) measured or calculated from the OT_NURR1_NURR1RXRa_1440 assay. It is designed to make measurements of protein fragment complementation, a form of binding reporter, as detected with fluorescence intensity signals by Protein-fragment Complementation technology.Data from the assay component OT_NURR1_NURR1RXRa_1440 was analyzed into 1 assay endpoint. This assay endpoint, OT_NURR1_NURR1RXRa_1440, was analyzed in the positive analysis fitting direction relative to DMSO as the negative control and baseline of activity. Using a type of binding reporter, measures of receptor for gain-of-signal activity can be used to understand the binding at the pathway-level as they relate to the gene RXRA. Furthermore, this assay endpoint can be referred to as a primary readout, because the performed assay has only produced 1 assay endpoint. To generalize the intended target to other relatable targets, this assay endpoint is annotated to the nuclear receptor intended target family, where the subfamily is non-steroidal.
Protein-fragment complementation assay, or PCA, is a method for the identification and quantification of protein-protein interactions. In the PCA, the proteins of interest ("bait" and "prey") are each covalently linked to fragments of a third protein (e.g. DHFR, which acts as a "reporter"). Interaction between the bait and the prey proteins brings the fragments of the reporter protein in close proximity to allow them to form a functional reporter protein whose activity can be measured.

| SMILES | outcome | AC50 |
| --- | --- | --- |
| Cc1ccc(N)cc1O | inactive | active: 50 µM |
| C1CCCNCC1 | inactive |  |
| CCCCCOC(=O)COc1cc(N2C(=O)C3=C(CCCC3)C2=O)c(F)cc1Cl | inactive | inconclusive: 34.3 µM |
| Oc1ccc(O)cc1 |  | active: 44 µM and inconclusive: 69.8 µM |
| CC(=O)CC(C)(C)O | inactive |  |
| CC1=CC(=O)/C(=C(/C)O)C(=O)O1 | inactive | inconclusive: 11.7 µM |
| CCOC(=O)Cc1cccc2ccccc12 | inactive |  |
| CCCCCCCCOc1ccc(C(=O)c2ccccc2)c(O)c1 |  | inconclusive: 50 µM |
| CC(C)CCCCCCc1ccc(O)cc1 |  | inconclusive: 83.5 µM [middle of 4 runs] |
| COc1ccc2sc(C(=O)Nc3nnn[nH]3)c(OC(C)C)c2c1 |  | inconclusive: 17.2 µM and inconclusive: 17.6 µM |
| O=Cc1ccccc1O |  | inconclusive: 9.92 µM |
| CN1CCN(c2ccccc2/C=C2\SCCN(c3ccc(Cl)c(Cl)c3)C2=O)CC1 |  | inconclusive: 22.4 µM and inconclusive: 25 µM |
| CCCCCCCCOC(=O)c1ccc(O)cc1 |  | active: 92.8 µM |
| CCCCCCCCCCCCc1ccc(O)cc1 |  | inconclusive: 18.2 µM |
| OCCN1CCNCC1 | inactive |  |
| CC(C)OC(=O)C(C)(C)Oc1ccc(C(=O)c2ccc(Cl)cc2)cc1 |  | inconclusive: 2.36 µM |
| CCCCOCCOC(=O)COc1ccc(Cl)cc1Cl |  | inconclusive: 50 µM |

Full records from above.
CC(=O)CC(C)(C)O as listed: outcome: inactive
CN1CCN(c2ccccc2/C=C2\SCCN(c3ccc(Cl)c(Cl)c3)C2=O)CC1 as listed: AC50: inconclusive: 22.4 µM and inconclusive: 25 µM

Next part

| SMILES | outcome | AC50 |
| --- | --- | --- |
| CC(C)(O)c1ccc(CNC(=O)c2cccnc2Oc2ccc3nonc3c2)cc1 |  | inconclusive: 88.2 µM and inconclusive: 84.3 µM |
| O=c1[nH]c2ccc(S(=O)CCN3CCC(Cc4ccc(F)cc4)CC3)cc2o1 (stereo not given) | inactive | inconclusive: 12.7 µM |
| Cc1cc2c(cc1C(F)(F)F)N(C(=O)Nc1ccc(Oc3cccnc3C)nc1)CC2 | inactive |  |
| CCCCCCCCO | inactive | inconclusive: 51.5 µM |
| O=C(O)c1ccccc1-n1cc(C(=O)O)c(=O)c2cc(Nc3c(F)cc(F)cc3Cl)c(Cl)cc21 |  | inconclusive: 50 µM |
| NC(=O)c1nc(-c2cccc(-c3cc(F)ccc3OCC(F)(F)C(F)(F)F)c2)n[nH]1 |  | inconclusive: 88.7 µM and inconclusive: 69 µM |
| C=CCOC(=O)c1ccccc1C(=O)OCC=C | inactive |  |
| C[C@@H]1C[C@H]2[C@@H]3CCC4=CC(=O)C=C[C@]4(C)[C@@]3(F)[C@@H](O)C[C@]2(C)[C@@]1(O)C(=O)COP(=O)(O)O | inactive | inconclusive: 21 µM |
| CC(=O)[C@H]1[C@H](C#N)C[C@H]2[C@@H]3CC=C4C[C@@H](O)CC[C@]4(C)[C@H]3CC[C@@]21C | inactive |  |
| CN(C[C@@H](CC[N+]12CCC(C3CCCCC3)(CC1)CC2)c1ccc(Cl)c(Cl)c1)C(=O)c1cc(C(F)(F)F)cc(C(F)(F)F)c1 |  | inconclusive: 13 µM and inconclusive: 17.4 µM |
| CCCCCc1ccc(Cl)cc1 | inactive |  |
| CC(C)(c1ccc(O)cc1)c1ccc(O)cc1 | inactive |  |
| c1c[nH]cn1 |  | inconclusive: 50 µM |
| O=c1cc(-c2ccc(O)cc2)oc2cc(O)cc(O)c12 |  | inconclusive: 76.5 µM |
| CCc1ccccc1O |  | inconclusive: 50 µM |
| O=C(C=Cc1ccccc1)OCc1ccccc1 |  | inconclusive: 50 µM |
| COc1ccc(OC(F)(F)F)cc1CN[C@H]1CCCN[C@H]1c1ccccc1 |  | inconclusive: 92.2 µM and inconclusive: 78.3 µM |
